Measured values as given in patent US20050053985A1.
These are yes or no findings as the source states them, for the method shown. In cells and extracts the contact can be indirect. Some binding calls cover weakened binding; strength is not graded here. Tags and fused reporters may be left off the sequences shown.

Experiments:
HsSen54 (human) = target: T1, HsSen54 (human) (UniProt Q7Z6J9); experiment: co-purification with the His-Flag-tagged bait from stable 293 cells (anti-Flag beads, then Ni beads); SDS-PAGE, silver staining
T1 sequence (looked up): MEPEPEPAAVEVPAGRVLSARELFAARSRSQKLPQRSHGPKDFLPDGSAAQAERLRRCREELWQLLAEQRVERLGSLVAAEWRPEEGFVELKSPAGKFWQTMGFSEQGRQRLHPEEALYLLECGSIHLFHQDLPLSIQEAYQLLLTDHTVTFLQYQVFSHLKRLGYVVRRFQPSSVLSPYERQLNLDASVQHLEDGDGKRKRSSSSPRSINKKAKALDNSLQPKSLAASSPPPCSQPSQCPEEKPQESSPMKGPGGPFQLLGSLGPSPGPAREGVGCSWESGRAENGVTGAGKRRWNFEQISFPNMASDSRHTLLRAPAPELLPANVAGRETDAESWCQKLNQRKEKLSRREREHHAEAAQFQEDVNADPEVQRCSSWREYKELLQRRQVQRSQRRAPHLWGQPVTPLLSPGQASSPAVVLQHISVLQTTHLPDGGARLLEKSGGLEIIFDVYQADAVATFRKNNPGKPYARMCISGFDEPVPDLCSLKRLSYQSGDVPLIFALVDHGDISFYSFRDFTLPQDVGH

HsSen15 (human) = target: T2, HsSen15 (human) (UniProt Q8WW01); experiment: as above
T2 sequence (looked up): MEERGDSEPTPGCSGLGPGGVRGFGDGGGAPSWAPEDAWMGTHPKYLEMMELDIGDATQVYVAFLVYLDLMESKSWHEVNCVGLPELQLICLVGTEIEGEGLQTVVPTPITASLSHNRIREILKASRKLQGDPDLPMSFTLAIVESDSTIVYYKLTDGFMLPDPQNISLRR

binding (HsSen54 (human)): binds
binding (HsSen15 (human)): binds
B1: His-Flag-HsClp1 (protein, human, UniProt Q92989 1-425, looked up, not shown: small tags and cut ends)
chain: MGEEANDDKKPTTKFELERETELRFEVEASQSVQLELLTGMAEIFGTELTRNKKFTFDAGAKVAVFTWHGCSVQLSGRTEVAYVSKDTPMLLYLNTHTALEQMRRQAEKEEERGPRVMVVGPTDVGKSTVCRLLLNYAVRLGRRPTYVELDVGQGSVSIPGTMGALYIERPADVEEGFSIQAPLVYHFGSTTPGTNIKLYNKITSRLADVFNQRCEVNRRASVSGCVINTCGWVKGSGYQALVHAASAFEVDVVVVLDQERLYNELKRDLPHFVRTVLLPKSGGVVERSKDFRRECRDERIREYFYGFRGCFYPHAFNVKFSDVKIYKVGAPTIPDSCLPLGMSQEDNQLKLVPVTPGRDMVHHLLSVSTAEGTEENLSETSVAGFIVVTSVDLEHQVFTVLSPAPRPLPKNFLLIMDIRFMDLK
